# In the supplement of paper PMC8728848:
# The other results are listed elsewhere or left out.
# B1: SJCP1084 (Schistosoma japonicum) (protein)
# chain: MRIINLVIISTALLLINLLQTKSQANGEDTKNGTPDDPGLTKSTELKVEVQALLKDKKTNMRVKWNENLLDNTKPEYHNLRDEACELLLQIVRSVVPLSQDDGECKDVTFTKYVVGTKDGAVNVKLTITFKDSVAINQKPMDLKLKLENDFKNLQSESTLKATKPTFTVKVEKRLIPISKPQTTPPTTAKNDASKENVGDIGGEDSTVPTAAPATAASANEEKDEGDKDNKDSQHPNVLTSNVNDRNLIIALVALMILAIGVALTAAVKQR
# Assays:
# Assay in all cases: glycan array binding signal (z-score within array); higher = stronger binding
# Details in all cases: glycan notation: IUPAC condensed, linker removed
# [1] = biological target: Fuc(a1-2)Gal(b1-4)GlcNAc(b1-3)Gal(b1-4)GlcNAc(b1-3)Gal(b1-4)GlcNAc
# Method in brief: (§1)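 The binding signal is a Z-score computed within each array and averaged over linkers. Arrays of the same protein sequence at different concentrations or buffers were also averaged together. Data originate from 3228 arrays in the Consortium for Functional Glycomics database, kept only where the protein sequence was available.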
# [2] = biological target: Fuc(a1-2)Gal(b1-4)GlcNAc(b1-3)GalNAc
# Method in brief: as §1
# [3] = biological target: Fuc(a1-2)Gal(b1-4)GlcNAc(b1-3)[Fuc(a1-2)Gal(b1-4)GlcNAc(b1-6)]GalNAc
# Method in brief: as §1
# [4] = biological target: Fuc(a1-2)Gal(b1-4)GlcNAc(b1-3)[Fuc(a1-3)[Gal(b1-4)]GlcNAc(b1-6)]Gal(b1-4)Glc
# Method in brief: as §1
# [5] = biological target: Fuc(a1-2)Gal(b1-4)GlcNAc(b1-6)GalNAc
# Method in brief: as §1
# [6] = biological target: Fuc(a1-2)Gal(b1-4)GlcNAc6S
# Method in brief: as §1
# [7] = biological target: Fuc(a1-2)Gal(b1-4)[Fuc(a1-3)]GlcNAc
# Method in brief: as §1
# [8] = biological target: Fuc(a1-2)Gal(b1-4)[Fuc(a1-3)]GlcNAc(b1-2)Man(a1-3)[Fuc(a1-2)Gal(b1-4)[Fuc(a1-3)]GlcNAc(b1-2)Man(a1-6)]Man(b1-4)GlcNAc(b1-4)[Fuc(a1-6)]GlcNAc
# Method in brief: as §1
# [9] = biological target: Fuc(a1-2)Gal(b1-4)[Fuc(a1-3)]GlcNAc(b1-2)[Fuc(a1-2)Gal(b1-4)[Fuc(a1-3)]GlcNAc(b1-4)]Man(a1-3)[Fuc(a1-2)Gal(b1-4)[Fuc(a1-3)]GlcNAc(b1-2)Man(a1-6)]Man(b1-4)GlcNAc(b1-4)GlcNAc
# Method in brief: as §1
# [10] = biological target: Fuc(a1-2)Gal(b1-4)[Fuc(a1-3)]GlcNAc(b1-3)Gal(b1-4)[Fuc(a1-3)]GlcNAc
# Method in brief: as §1
# [11] = biological target: Fuc(a1-2)Gal(b1-4)[Fuc(a1-3)]GlcNAc(b1-3)Gal(b1-4)[Fuc(a1-3)]GlcNAc(b1-3)Gal(b1-4)[Fuc(a1-3)]GlcNAc
# Method in brief: as §1
# [12] = biological target: Fuc(a1-2)Gal(b1-4)[Fuc(a1-3)]GlcNAc(b1-3)GalNAc
# Method in brief: as §1
# [13] = biological target: Fuc(a1-2)Gal(b1-4)[Fuc(a1-3)]GlcNAc(b1-3)[Neu5Ac(a2-6)Gal(b1-4)GlcNAc(b1-6)]Gal(b1-4)Glc
# Method in brief: as §1
# [14] = biological target: Fuc(a1-2)Gal3S(b1-4)GlcNAc
# Method in brief: as §1
# [15] = biological target: Fuc(a1-2)Gal6S(b1-3)GlcNAc
# Method in brief: as §1
# [16] = biological target: Fuc(a1-2)Gal6S(b1-3)GlcNAc6S
# Method in brief: as §1
# Fuc(a1-2)Gal6S(b1-4)Glc = biological target: Fuc(a1-2)Gal6S(b1-4)Glc
# Method in brief: as §1
# [17] = biological target: Fuc(a1-2)Gal6S(b1-4)Glc6S
# Method in brief: as §1
# Fuc(a1-2)[Gal(a1-3)]Gal = biological target: Fuc(a1-2)[Gal(a1-3)]Gal
# Method in brief: as §1
# [18] = biological target: Fuc(a1-2)[Gal(a1-3)]Gal(b1-3)GalNAc
# Method in brief: as §1
# [19] = biological target: Fuc(a1-2)[Gal(a1-3)]Gal(b1-3)GalNAc(b1-3)Gal(a1-4)Gal(b1-4)Glc
# Method in brief: as §1
# [20] = biological target: Fuc(a1-2)[Gal(a1-3)]Gal(b1-3)GlcNAc
# Method in brief: as §1
# [21] = biological target: Fuc(a1-2)[Gal(a1-3)]Gal(b1-3)GlcNAc(b1-2)Man(a1-3)[Fuc(a1-2)[Gal(a1-3)]Gal(b1-3)GlcNAc(b1-2)Man(a1-6)]Man(b1-4)GlcNAc(b1-4)GlcNAc
# Method in brief: as §1
# [22] = biological target: Fuc(a1-2)[Gal(a1-3)]Gal(b1-3)GlcNAc(b1-2)Man(a1-3)[Fuc(a1-2)[Gal(a1-3)]Gal(b1-3)GlcNAc(b1-2)Man(a1-6)]Man(b1-4)GlcNAc(b1-4)[Fuc(a1-6)]GlcNAc
# Method in brief: as §1
# [23] = biological target: Fuc(a1-2)[Gal(a1-3)]Gal(b1-3)GlcNAc(b1-3)GalNAc
# Method in brief: as §1
# [24] = biological target: Fuc(a1-2)[Gal(a1-3)]Gal(b1-3)GlcNAc(b1-6)GalNAc
# Method in brief: as §1
# [25] = biological target: Fuc(a1-2)[Gal(a1-3)]Gal(b1-4)Glc
# Method in brief: as §1
# [26] = biological target: Fuc(a1-2)[Gal(a1-3)]Gal(b1-4)GlcNAc
# Method in brief: as §1
# [27] = biological target: Fuc(a1-2)[Gal(a1-3)]Gal(b1-4)GlcNAc(b1-2)Man
# Method in brief: as §1
# [28] = biological target: Fuc(a1-2)[Gal(a1-3)]Gal(b1-4)GlcNAc(b1-2)Man(a1-3)[Fuc(a1-2)[Gal(a1-3)]Gal(b1-4)GlcNAc(b1-2)Man(a1-6)]Man(b1-4)GlcNAc(b1-4)GlcNAc
# Method in brief: as §1
binder,measurement,setting,value
B1,glycan array binding signal (z-score),[1],-0.128
same,glycan array binding signal (z-score),[2],0.22
same,glycan array binding signal (z-score),[3],-0.052
same,glycan array binding signal (z-score),[4],0.781
same,glycan array binding signal (z-score),[5],-1.1
same,glycan array binding signal (z-score),[6],-0.159
same,glycan array binding signal (z-score),[7],-0.299
same,glycan array binding signal (z-score),[8],-0.091
same,glycan array binding signal (z-score),[9],-0.415
same,glycan array binding signal (z-score),[10],1.23
same,glycan array binding signal (z-score),[11],-0.222
same,glycan array binding signal (z-score),[12],-0.35
same,glycan array binding signal (z-score),[13],-0.645
same,glycan array binding signal (z-score),[14],-1.04
same,glycan array binding signal (z-score),[15],-1.55
same,glycan array binding signal (z-score),[16],-0.42
same,glycan array binding signal (z-score),Fuc(a1-2)Gal6S(b1-4)Glc,2.12
same,glycan array binding signal (z-score),[17],-0.396
same,glycan array binding signal (z-score),Fuc(a1-2)[Gal(a1-3)]Gal,0.332
same,glycan array binding signal (z-score),[18],0.032
same,glycan array binding signal (z-score),[19],-0.223
same,glycan array binding signal (z-score),[20],-0.098
same,glycan array binding signal (z-score),[21],0.322
same,glycan array binding signal (z-score),[22],-0.939
same,glycan array binding signal (z-score),[23],-1.17
same,glycan array binding signal (z-score),[24],-1.16
same,glycan array binding signal (z-score),[25],-0.198
same,glycan array binding signal (z-score),[26],-0.059
same,glycan array binding signal (z-score),[27],-1.21
same,glycan array binding signal (z-score),[28],0.795

# Some of the entries above in a different format:
binder	measurement	setting	value
B1	glycan array binding signal (z-score)	[13]	-0.645
same	glycan array binding signal (z-score)	[14]	-1.04
